# Experimental data: publication PMC3806821
# Amino acid sequences for entries named in this document (tags omitted).
# UniProt Q14676: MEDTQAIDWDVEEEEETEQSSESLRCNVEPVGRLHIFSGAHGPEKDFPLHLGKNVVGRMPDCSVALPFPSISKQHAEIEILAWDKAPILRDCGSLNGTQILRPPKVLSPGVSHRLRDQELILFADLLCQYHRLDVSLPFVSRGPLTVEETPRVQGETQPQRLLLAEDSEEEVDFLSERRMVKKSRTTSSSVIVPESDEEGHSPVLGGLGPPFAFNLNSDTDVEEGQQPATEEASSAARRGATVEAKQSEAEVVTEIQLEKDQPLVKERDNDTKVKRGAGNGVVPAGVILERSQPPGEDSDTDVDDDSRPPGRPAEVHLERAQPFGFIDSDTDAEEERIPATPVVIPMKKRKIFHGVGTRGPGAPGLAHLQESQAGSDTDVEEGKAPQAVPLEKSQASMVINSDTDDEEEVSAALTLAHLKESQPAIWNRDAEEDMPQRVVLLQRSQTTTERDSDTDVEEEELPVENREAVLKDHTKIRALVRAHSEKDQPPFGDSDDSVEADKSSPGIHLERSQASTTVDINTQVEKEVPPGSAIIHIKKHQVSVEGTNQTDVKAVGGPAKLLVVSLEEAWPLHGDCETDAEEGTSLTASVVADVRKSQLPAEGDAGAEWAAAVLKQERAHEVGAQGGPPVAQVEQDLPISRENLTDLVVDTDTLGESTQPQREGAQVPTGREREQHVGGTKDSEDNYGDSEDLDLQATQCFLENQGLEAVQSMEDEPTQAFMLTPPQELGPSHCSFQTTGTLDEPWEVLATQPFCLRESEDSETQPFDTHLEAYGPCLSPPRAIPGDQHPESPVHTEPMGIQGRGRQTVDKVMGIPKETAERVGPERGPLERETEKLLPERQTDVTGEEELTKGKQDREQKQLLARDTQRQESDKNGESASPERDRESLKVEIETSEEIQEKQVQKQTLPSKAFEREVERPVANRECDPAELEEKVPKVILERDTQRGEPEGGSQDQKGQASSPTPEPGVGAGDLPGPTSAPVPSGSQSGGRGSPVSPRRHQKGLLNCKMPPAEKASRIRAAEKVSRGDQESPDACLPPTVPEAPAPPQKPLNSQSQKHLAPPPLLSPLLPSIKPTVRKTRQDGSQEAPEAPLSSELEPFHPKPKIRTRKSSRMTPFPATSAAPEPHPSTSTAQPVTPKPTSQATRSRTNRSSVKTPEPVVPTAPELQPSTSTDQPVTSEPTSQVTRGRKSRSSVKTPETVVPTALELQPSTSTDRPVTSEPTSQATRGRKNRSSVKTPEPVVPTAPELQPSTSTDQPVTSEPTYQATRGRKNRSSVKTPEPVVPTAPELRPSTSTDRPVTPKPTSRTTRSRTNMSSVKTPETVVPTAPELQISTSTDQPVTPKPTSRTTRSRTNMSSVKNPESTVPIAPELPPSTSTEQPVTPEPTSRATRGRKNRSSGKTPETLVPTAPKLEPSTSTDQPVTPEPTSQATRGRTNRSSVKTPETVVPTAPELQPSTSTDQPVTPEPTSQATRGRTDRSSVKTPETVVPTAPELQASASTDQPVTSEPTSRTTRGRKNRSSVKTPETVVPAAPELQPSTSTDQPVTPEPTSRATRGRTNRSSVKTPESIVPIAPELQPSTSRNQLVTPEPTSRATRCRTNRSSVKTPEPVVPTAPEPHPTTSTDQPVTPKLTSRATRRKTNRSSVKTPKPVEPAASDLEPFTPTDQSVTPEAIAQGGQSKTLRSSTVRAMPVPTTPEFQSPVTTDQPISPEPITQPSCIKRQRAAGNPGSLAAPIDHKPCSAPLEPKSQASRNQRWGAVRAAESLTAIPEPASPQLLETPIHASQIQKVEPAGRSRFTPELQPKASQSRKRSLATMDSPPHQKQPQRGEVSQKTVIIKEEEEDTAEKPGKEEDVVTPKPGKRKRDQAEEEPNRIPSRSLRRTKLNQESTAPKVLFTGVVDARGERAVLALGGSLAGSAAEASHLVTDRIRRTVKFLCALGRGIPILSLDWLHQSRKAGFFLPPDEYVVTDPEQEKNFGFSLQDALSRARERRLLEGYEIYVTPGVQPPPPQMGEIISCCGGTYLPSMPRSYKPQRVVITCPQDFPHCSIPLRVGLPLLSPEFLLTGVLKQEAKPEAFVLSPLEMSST
# These are yes or no findings as the source states them, for the method shown. In cells and extracts the contact can be indirect. Some binding calls cover weakened binding; strength is not graded here.
# What was measured:
# [1] = molecular target: p53 fused to a HA-tag (HA-p53), overexpressed in 293T cells (human) (UniProt P04637); experiment: co-IP; 293T cells overexpressing HA-p53, untreated (no NCS); IP with anti-HA antibodies, blot for endogenous MDC1
# [2] = molecular target: p53 CTD peptide (a.a. 361-393) containing both Ac-K382 and pS392, biotin-labeled (human) (UniProt P04637); experiment: pull-down; peptide pull-down of endogenous MDC1 and p53 from nuclear HeLa extract; Western blot; only the target purified
# [3] = molecular target: unmodified p53 CTD peptide (a.a. 361-393), biotin-labeled (human) (UniProt P04637); experiment: as above
# [4] = molecular target: p53 fused to a HA-tag (HA-p53), overexpressed in 293T cells (human) (UniProt P04637); experiment: co-IP; 293T cells overexpressing HA-p53, treated with NCS, 1 hr incubation; IP with anti-HA antibodies, blot for endogenous MDC1; control IP with anti-GST antibodies
# [5] = molecular target: endogenous MDC1 (human (endogenous in 293T, 293 and HeLa)) (UniProt Q14676); experiment: co-IP; extracts of 293 cells, 5 Gray ionizing radiation, 1 hr recovery; IP with antibodies against MDC1-tBRCT or MDC1-FHA, Western blot with anti-p53
substance,measurement,setting,value
endogenous MDC1 (from UniProt Q14676 1-2089),binding,[1],no binding (condition: cells not treated with NCS)
same,binding,[2],binds
same,binding,[3],binds
same,binding,[4],binds
endogenous p53 (from UniProt P04637 1-393),binding,[5],binds
